This note sets out measurements from PubChem BioAssay AID1508600 (Functional Genomics Laboratory (NCATS/FGL), 2020).

Among all 53,000 sequences or so, about 3,700 (7%) were called active.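 How the source made its calls: active means gene knockdowns whose robust z-score for IL-1 alpha signal is at least 2 or at most -2, so actives lie on both sides; inactive means the rest.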 The list shows a part of the results.

This experiment in a line: Components of the Cytosolic LPS Sensing Pathway: Gene Identification via Genome-wide siRNA Screen.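 Further: robust z of the log signal after scaling to non-targeting control siRNA wells of the plate.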 The conditions noted are these: RAW264.7 macrophages, IL-1a HTRF, actives lie on both sides, screened at 100 nM (by protocol), cells primed 5 h with Pam3CSK4 first. The essentials:
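Supernatant IL-1a by HTRF from RAW264.7 cells primed with Pam3CSK4 (5 hours) and transfected with LipidA (24 hour) after 48h siRNA knockdown at 100 nM; cell viability checked with CellTiter-Glo.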
On the technique in general: In TR-FRET formats the signal depends on donor and acceptor labels being close together.
On to GGUCUUGAAUGUCAAGGCUTT against Mylk, for which the z-score is inactive: 0.114. Next, GCACCCUGAUGACUGAGUUTT against Olfr204: inactive: 1.15; GGACAUUGUAGGAGCCCAUTT against Kynu: inactive: -0.153.

Take GGAAGUUUCUGAAUGCUGUTT against Klrd1: the z-score was inactive: 0.0912. Regarding GGAAAAGUCCAAGUUUGAATT against Hmgb2, the z-score is inactive: -0.104.

As for CCGUUAAGUAGCUGGAAGATT against Ubl4b, the z-score is inactive: 0.488. Regarding CCAAUGCAAUGUUAGCUUUTT against Tas1r3, the z-score was inactive: 0.898. CCCGAGAUGAGGAACUUUUTT against Ndnf: the z-score is inactive: -0.359. Turning to GCAAGGUUAUCGCAUUUGGTT against Olfr1511, the z-score is inactive: -0.854.

Turning to GCUCAUACAUGGUGGACUATT against Tex37, the z-score is inactive: -0.653. As to GGGUAUCAGUGCCUUCCUGTT against Acads, the z-score is inactive: -1.05.

With CGCCGUAUUUAGACUAAAATT against Capn11, the z-score is inactive: 1.13.

Regarding GGAAAGGUGAACACAAAUGTT against Gatb, the z-score was inactive: 0.388. The value for CCAAUAGCUAGUCUCCUAGTT against Vmn2r29 was inactive: 0.0992; that for GCUCAUAAUUUUGACAGCUTT against Cyp51 was inactive: 0.168; that for GGAUGUAAAACUCUUCUACTT against Deptor was inactive: 1.28. Next, CCUGAUAUUCAUGACCAAATT against Wasf2: inactive: -0.0177; GGAGAAUCAUGUGAGCCUGTT against Tph1: inactive: -0.0851; GGUAGUCACUAUCUUAAUCTT against Olfr1101: inactive: -0.164. The value for CGAGAAUAUUCGCCCAACCTT against Erbb3 was inactive: 0.682. GGAAAGAGCUUUUUAUUGUTT against Zfp235: the z-score was inactive: 0.145.

As for CCUUUCAAGGAAAUGAUCCTT against Rxfp1, the z-score is inactive: -1.66. The value for CGUGUAUCGUUGUCUGAAUTT against Donson was active: 2.75.

For GCAGAUCGAUUUUACCUCGTT against Tm2d1, the z-score is inactive: 0.116. As for CCAUGAAAGAGGUAAUGCATT against Mdm4, the z-score was inactive: -0.634. Next, GGUUGUGUAAAAUAGUACUTT against Hp1bp3: inactive: 0.172.

Regarding CCAGAACUCACUGUUGAUUTT against Gabre, the z-score is inactive: 0.29. Next, GGGUUUUAUUGGAAAAGGATT against Riok3: inactive: 0.595; GGUGGUGGCUCUCAACUUATT against Fcrl1: inactive: 0.242; GGCACUUAAGGAAAUUGGGTT against Bloc1s1: active: -2.02.

Turning to GCCUUGGUACCAUAAUGCATT against Synm, the z-score was inactive: 0.224. Take GCAUAUCCAAACAUGUGAUTT against Rnase11: the z-score was inactive: -0.806. Next, GGCAGAGAUUAGAUCUCAGTT against Tex13a: inactive: 0.146; CCCAAGAGCAAACUAUGAATT against Sult3a1: inactive: 0.267. Take CGCAGGAUUGAGUUAAUUATT against Gm11541: the z-score is inactive: -0.809. With GCACAAUUUCAUACCUUGGTT against Olfr490, the z-score was inactive: -1.53. Take CGGAAAUUGACCUACAAUATT against Gtf3c5: the z-score is inactive: 1.18. Regarding GGAGCUUCUUGACCUCGUGTT against Frmd4a, the z-score was inactive: 0.184. For the sequence GGAUUGAAGCAGGCAGCUUTT against Purb, the z-score was inactive: -0.787. The value for GGCUACUGAUUAAAUGCUATT against Ermap was inactive: -1.16; that for GGGCCAAGGAACCUAUUUGTT against Ltbr was inactive: 0.58; that for GGAAGCCAAAAAGUUUUUATT against Cyp3a44 was inactive: 0.26. Next, CGAGAACCCACUUUUAAAGTT against Olfr701: inactive: -0.455. In the case of GGUCAGGAAACCAUCAUGATT against Siae, the z-score was inactive: -0.738. Next, ACUAUGGUUGGUUCAAACGTT against Acat2: inactive: -1.23; GGAUCUGAUAACGUGGACATT against H2-Q2: inactive: 0.168; GCUAGGAUUGUUCACAAACTT against Spdef: inactive: -0.707.

Consider CCAAAUGACAAAAAACCUUTT against Zfp217, for which the z-score was inactive: 0.0484. The value for GCUGAUUCGGCUUAUGAUCTT against Tfdp2 was inactive: 0.181; that for CCAUUAAUCCCUGGAGCGATT against Guca1a was inactive: 1.01; that for GGCCUGGAUGGAAAUUUGCTT against Fabp4 was inactive: -0.851. On to CCUUUCCUUUGUUGAUUUCTT against Olfr887, for which the z-score is inactive: -0.288.

Turning to CGACAAGAGAGCACAGAGATT against Traf3ip1, the z-score was inactive: -1.9. The value for GGAGUUGAGAUCAUGUAGGTT against Mettl6 was inactive: -1.56; that for CCCUCAAAGUCAUUUCAAATT against Cfap43 was inactive: -1.61; that for CCCAAAGAUAGAGCUCUGUTT against Sec61a2 was inactive: -1.94. The value for GGCCAAAAACAAGGAGACCTT against Stk10 was inactive: 0.0817. The value for GGUGUUCCUAUAAAAGUAUTT against Tfb2m was inactive: 0.597; that for GUCUUUCUGUCUUGUCUUGTT against Fbxo21 was inactive: -1.19. As for GGUAGAAAAGAAUAUUGAGTT against Cspp1, the z-score is inactive: 1.89. The value for GGCGAUUAAACUAUACAUUTT against Rrm2 was inactive: 0.0358; that for CGUCUUUCCUCACUAGCAATT against Cdc42ep4 was inactive: 0.562; that for GGCUGCCUCGAAAUUACAATT against Lamb3 was inactive: -0.675. Next, GCAGAGUUUGCAUGCUGUUTT against Duxbl1: inactive: -1.24; AGGACUAGGGAUCCUAAUUTT against Ubl5: inactive: -0.74; GGGAUUGCUACAGAGACUCTT against Grk6: inactive: 0.176.

For GGUCCAUACUCCUAAAGAATT against Mpzl1, the z-score was inactive: -0.727. The value for GGUCUUCUUUAGUUCAGAATT against Dbndd1 was inactive: -0.0862.
